Experimental findings from doi:10.1101/2023.06.21.545928 are described below.

The chains behind the UniProt entries cited, without tags or fusion partners. Where a name states a change or a piece, a line headed by the entry shows the natural chain unless it says otherwise. Residues count along the entry.
UniProt P25963, whole entry: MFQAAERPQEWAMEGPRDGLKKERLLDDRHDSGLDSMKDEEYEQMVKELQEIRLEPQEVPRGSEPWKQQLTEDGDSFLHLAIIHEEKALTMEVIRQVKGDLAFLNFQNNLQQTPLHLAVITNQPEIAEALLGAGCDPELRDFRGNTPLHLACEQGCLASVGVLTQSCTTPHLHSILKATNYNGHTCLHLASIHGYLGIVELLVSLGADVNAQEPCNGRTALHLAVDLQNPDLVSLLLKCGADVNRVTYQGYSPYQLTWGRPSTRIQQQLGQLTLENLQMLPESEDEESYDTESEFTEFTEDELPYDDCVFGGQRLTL
UniProt P19838, 1-433: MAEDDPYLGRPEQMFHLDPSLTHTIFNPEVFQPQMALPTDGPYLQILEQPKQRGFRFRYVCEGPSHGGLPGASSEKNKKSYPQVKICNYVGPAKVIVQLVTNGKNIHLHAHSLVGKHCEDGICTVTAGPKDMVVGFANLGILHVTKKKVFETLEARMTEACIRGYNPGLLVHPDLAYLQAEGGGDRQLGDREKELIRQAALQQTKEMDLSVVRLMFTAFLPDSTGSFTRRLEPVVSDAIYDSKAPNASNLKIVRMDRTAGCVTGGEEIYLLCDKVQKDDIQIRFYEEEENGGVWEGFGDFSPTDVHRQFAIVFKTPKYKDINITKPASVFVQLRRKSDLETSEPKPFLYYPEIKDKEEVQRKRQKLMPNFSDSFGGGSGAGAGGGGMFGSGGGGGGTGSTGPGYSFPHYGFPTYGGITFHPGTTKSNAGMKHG
UniProt Q04206, whole entry: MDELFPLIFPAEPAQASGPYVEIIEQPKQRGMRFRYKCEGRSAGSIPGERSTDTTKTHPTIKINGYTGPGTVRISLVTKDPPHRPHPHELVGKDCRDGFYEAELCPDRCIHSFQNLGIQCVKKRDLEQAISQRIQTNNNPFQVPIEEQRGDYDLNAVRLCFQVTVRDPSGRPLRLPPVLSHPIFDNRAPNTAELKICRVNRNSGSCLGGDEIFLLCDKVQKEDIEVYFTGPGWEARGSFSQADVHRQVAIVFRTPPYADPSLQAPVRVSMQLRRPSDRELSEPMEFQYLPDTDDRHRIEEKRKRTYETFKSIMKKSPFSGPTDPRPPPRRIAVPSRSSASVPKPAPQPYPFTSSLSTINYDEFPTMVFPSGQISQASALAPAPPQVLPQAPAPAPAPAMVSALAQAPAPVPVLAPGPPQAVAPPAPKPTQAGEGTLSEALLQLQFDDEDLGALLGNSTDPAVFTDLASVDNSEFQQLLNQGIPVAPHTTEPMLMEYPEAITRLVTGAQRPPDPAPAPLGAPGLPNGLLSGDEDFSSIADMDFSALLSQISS

Results are given in words; binding and its absence hold for the method and conditions named. Binding seen in cells or lysates may run through a third protein. Some results given as binding are weak or reduced against the parent protein; the word gives no strength.

What all share (assay): co-IP
Assay [1] addresses HA-IκBα H84A, E85A, E86A, N108A, Q112A compose mutant (human) (UniProt P25963).
Assay [2] has as its target IκBα N108A single point mutant (human) (UniProt P25963).
Assay [3] deals with HA-IκBα H84A, E85A, E86A compose mutant (M3) (human) (UniProt P25963).
Assay [4] deals with IκBα/β-mimic (HEE to HQH), ectopically expressed (human) (UniProt P25963).
Assay [5] deals with IκBα N108A from IκBα knock-in HCT116 cells (human) (UniProt P25963).
The target of assay [6] is IκBα D75A single point mutant (human) (UniProt P25963).
Assay [7] addresses IκBα WT from IκBα knock-in HCT116 cells (human) (UniProt P25963).
Assay [8] has as its target IκBα/β-mimic (HEE to HQH) from IκBα knock-in HCT116 cells (human) (UniProt P25963).

In the case of “NF-κB p50, endogenous (from UniProt P19838)”, the binding result in assay [1] was “no binding”; in assay [2], “no binding”; in assay [3] it was “binds”; in assay [4] it was “binds”; in assay [5] it was “no binding”; in assay [6] it was “no binding”. Further, the binding result in assay [7] and in assay [8] was “binds” each time.
Take “NF-κB/p65, endogenous (from UniProt Q04206 1-551)”: the binding entry was “no binding” in assay [1]; “no binding” in assay [2]; “binds” in assay [3]; “binds” in assay [4]; “no binding” in assay [5]; “no binding” in assay [6]. In addition, in assay [8], the binding result is “binds”.
